According to the supplement of paper PMC12578635:
± gives the standard deviation of the averaged measurements. Some of the results follow. Single values are uncertain, as repeats are few or missing.

Each compound was assayed on RAW 264.7 macrophages infected with S. aureus JE2-lux (assay: host macrophage viability (CellTiter-Fluor) relative to DMSO vehicle; higher = more viable host cells). Conditions: 10 µM; treatment time 4 h; gentamicin 50 µg/ml.
`O=C(COc1coc(CN2CCc3ccccc3C2)cc1=O)NCc1ccc2c(c1)OCO2` gave a host macrophage viability of 113%.
Work on `COc1ccc(-c2nc(OCC(=O)Nc3cccc(OC)c3)c3c4c(sc3n2)CCCC4)cc1` yielded a host macrophage viability of 118%.
Compound `CCOC(=O)c1cccc(NC(=O)Cn2cc(-c3nnc(CN4CCCCC4)o3)c3ccccc32)c1` has a host macrophage viability of 118%.
`COc1ccc2sc(Nc3ccc(F)cc3F)nc2c1` showed a host macrophage viability of 112%.
In the case of `Cc1cc(NC(=O)Cn2nnc(-c3ccc4c(c3)OCO4)n2)no1`, the host macrophage viability is reported as 118%.
Work on `N=C1NC(=O)C(CC(=O)Nc2cccc3ccccc23)S1` (stereo not drawn) yielded a host macrophage viability of 112%.
In the case of `COc1ccc(CN2Cc3ccncc3C2=O)c(OC)c1`, the host macrophage viability is reported as 117%.
In the case of `COc1ccc(NC(=O)COc2nc(C)nc3onc(-c4ccccc4)c23)c(OC)c1`, the host macrophage viability is reported as 131%.
Compound `O=c1cc(-c2ccc(F)cc2)nc(N2CCN(Cc3ccc4c(c3)OCO4)CC2)[nH]1` has a host macrophage viability of 140%.
`Cc1ccc([N+](=O)[O-])cc1NC(=O)CC(C(=O)O)N1CCN(C)CC1` (stereo not drawn) was tested, and the host macrophage viability was 120%.
Work on `CCOC(=O)CCCSc1nc2sc3c(c2c(=O)[nH]1)CCC3` yielded a host macrophage viability of 116%.
`Cc1ccc(S(=O)(=O)N2CCCc3ccc(NC(=O)c4ccc5c(c4)OCO5)cc32)cc1` showed a host macrophage viability of 99.7%.
With `Cc1cc(C)c2sc(NNC(=O)c3nc4ccccc4s3)nc2c1` the host macrophage viability was 119 ± 18%.
`Cc1nn(C)c2ncc(C(=O)NC3CC3)c(NCc3ccccc3)c12` showed a host macrophage viability of 106%.
`O=C1N/C(=N\c2ccccc2)c2c1cccc2[N+](=O)[O-]` was tested, and the host macrophage viability was 105%.
For `CC1CN(CCc2ccccc2)c2nc3c(c(=O)n(CC(=O)OCc4ccccc4)c(=O)n3C)n2C1` (stereo not drawn), the host macrophage viability was 118%.
In the case of `CCOc1ccc(-c2csc3c(=O)n(C)cnc23)cc1OCC`, the host macrophage viability is reported as 104%.
Work on `CC1CN(S(=O)(=O)c2ccc(C(=O)NNC(=O)c3ccc4ncsc4c3)cc2)CC(C)O1` (stereo not drawn) yielded a host macrophage viability of 105%.
With `CCOc1ccc(NC(=O)c2ccc(CNc3nc4[nH]c(C)cc(=O)n4n3)cc2)cc1` the host macrophage viability was 93.2%.
`N=C1SCC(=O)N1c1ncc(Cc2ccccc2F)s1` gave a host macrophage viability of 129%.
Work on `Cn1c(SCC(=O)c2ccc(F)cc2)ncc(C(=O)Nc2ccccc2)c1=O` yielded a host macrophage viability of 126%.
With `CC1(C)CC(=O)c2sc(NC(=O)c3cccc(N4C(=O)CCC4=O)c3)nc2C1` the host macrophage viability was 105 ± 16%.
With `CCN(CC)S(=O)(=O)c1ccc(C(=O)Nc2nnc(-c3cccc(S(C)(=O)=O)c3)o2)cc1` the host macrophage viability was 133%.
`COc1ccccc1-n1c(=O)[nH]c2c(C(N)=O)nc(-c3cccc(OC)c3O)nc21` showed a host macrophage viability of 122%.
`CN(C(=O)c1cnc(N2CCCCC2)c2ccccc12)C1CCCCC1` gave a host macrophage viability of 123%.
`C=CCNC(=O)Cn1nc(-c2cc(C)oc2C)cc(N)c1=O` showed a host macrophage viability of 94.7%.
`CCCCC1CCC(C(=O)Oc2cc(C)[nH]c(=O)c2[N+](=O)[O-])CC1` (stereo not drawn) was tested, and the host macrophage viability was 109%.
Work on `CCc1nnc2ccc(C(=O)NCc3ccc(Cl)cc3)cn12` yielded a host macrophage viability of 116%.
